Measured values taken from the supplement of paper PMC11006884.
The entries are a selection whose mix differs from that of the whole data set.

Protein sequences, listed by entry. Tags and fused reporters are not part of them. Lines headed by an entry give the natural chain unless they say otherwise; changes in a name come on top.
UniProt Q9UKV3: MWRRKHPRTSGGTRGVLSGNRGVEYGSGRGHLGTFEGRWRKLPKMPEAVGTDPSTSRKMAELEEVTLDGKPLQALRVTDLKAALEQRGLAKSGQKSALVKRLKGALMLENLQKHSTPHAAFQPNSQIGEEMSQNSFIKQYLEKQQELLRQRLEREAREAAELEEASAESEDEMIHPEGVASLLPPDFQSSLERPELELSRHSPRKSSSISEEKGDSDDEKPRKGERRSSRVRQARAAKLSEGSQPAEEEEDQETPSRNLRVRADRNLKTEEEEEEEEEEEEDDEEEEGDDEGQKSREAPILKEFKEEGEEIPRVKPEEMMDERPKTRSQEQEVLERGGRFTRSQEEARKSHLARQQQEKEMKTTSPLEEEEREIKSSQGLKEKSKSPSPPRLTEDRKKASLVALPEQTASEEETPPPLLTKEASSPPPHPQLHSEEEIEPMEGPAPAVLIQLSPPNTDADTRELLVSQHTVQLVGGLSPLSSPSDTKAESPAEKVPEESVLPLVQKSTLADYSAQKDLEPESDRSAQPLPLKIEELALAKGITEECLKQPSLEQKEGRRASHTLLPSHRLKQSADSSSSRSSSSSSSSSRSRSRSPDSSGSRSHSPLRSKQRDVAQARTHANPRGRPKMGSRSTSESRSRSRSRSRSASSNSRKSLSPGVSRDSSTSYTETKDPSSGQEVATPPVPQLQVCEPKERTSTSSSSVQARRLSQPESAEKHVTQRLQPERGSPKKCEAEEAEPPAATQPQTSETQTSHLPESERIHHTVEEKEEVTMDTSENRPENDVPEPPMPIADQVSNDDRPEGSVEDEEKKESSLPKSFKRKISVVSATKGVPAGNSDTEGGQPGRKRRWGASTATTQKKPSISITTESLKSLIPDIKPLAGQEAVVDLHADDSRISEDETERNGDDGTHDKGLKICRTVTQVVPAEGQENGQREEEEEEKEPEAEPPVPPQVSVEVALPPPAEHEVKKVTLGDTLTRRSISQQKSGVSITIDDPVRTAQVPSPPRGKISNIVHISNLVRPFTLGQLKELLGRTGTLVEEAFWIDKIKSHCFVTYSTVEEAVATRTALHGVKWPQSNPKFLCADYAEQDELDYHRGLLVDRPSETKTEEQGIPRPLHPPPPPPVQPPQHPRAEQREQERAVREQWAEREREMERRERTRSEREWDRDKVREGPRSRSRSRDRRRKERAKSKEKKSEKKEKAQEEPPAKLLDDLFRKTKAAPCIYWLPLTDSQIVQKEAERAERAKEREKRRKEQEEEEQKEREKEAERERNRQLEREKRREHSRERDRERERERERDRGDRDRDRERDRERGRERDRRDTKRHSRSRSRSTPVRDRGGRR
UniProt Q9Y2L1: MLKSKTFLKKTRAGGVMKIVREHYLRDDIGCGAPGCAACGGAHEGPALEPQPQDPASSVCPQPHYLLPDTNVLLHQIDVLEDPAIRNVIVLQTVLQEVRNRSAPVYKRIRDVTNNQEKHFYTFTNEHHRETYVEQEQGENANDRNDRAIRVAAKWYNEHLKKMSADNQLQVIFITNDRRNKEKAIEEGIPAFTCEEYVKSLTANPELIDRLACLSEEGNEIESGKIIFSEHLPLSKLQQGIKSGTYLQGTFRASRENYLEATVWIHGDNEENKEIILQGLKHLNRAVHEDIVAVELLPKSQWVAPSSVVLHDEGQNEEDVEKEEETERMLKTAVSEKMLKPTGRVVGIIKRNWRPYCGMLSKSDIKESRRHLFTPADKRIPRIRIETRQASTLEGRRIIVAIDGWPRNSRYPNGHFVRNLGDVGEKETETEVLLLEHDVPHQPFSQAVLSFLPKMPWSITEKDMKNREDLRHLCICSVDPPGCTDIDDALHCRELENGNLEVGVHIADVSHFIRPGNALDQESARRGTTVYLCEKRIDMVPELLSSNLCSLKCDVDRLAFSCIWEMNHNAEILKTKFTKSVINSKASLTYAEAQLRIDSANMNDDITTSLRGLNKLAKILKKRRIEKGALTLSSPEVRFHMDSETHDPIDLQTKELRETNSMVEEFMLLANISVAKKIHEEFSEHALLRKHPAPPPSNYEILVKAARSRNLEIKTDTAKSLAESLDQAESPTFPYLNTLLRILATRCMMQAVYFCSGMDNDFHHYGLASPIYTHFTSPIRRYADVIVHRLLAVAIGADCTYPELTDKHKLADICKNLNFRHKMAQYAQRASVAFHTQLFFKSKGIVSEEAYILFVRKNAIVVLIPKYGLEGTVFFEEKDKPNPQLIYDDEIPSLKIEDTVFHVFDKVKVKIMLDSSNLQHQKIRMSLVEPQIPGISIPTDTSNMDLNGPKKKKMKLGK
UniProt Q9ULW0, whole entry, looked up: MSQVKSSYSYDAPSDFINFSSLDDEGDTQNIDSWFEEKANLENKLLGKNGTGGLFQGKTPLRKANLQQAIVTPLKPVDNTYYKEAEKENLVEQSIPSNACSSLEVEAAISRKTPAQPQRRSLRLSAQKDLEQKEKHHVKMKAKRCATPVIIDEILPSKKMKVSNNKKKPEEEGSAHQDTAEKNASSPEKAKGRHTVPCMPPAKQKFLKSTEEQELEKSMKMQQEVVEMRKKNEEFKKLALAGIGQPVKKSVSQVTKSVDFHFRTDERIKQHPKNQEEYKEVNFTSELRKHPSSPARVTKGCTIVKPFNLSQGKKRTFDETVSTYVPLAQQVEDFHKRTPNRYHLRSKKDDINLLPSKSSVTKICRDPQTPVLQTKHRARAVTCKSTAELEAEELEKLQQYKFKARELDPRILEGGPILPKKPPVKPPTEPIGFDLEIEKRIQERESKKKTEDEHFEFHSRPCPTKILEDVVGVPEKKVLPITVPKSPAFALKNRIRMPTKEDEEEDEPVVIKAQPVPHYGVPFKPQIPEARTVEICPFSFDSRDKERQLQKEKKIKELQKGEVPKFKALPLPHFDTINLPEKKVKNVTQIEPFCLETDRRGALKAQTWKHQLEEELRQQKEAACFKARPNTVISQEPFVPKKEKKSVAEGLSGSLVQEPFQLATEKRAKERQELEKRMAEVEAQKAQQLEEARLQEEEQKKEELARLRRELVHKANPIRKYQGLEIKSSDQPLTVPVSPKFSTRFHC
UniProt Q9UK45: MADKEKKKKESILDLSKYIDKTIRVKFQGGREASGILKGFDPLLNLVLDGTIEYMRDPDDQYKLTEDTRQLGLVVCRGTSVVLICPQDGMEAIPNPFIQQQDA
UniProt Q9Y2A7: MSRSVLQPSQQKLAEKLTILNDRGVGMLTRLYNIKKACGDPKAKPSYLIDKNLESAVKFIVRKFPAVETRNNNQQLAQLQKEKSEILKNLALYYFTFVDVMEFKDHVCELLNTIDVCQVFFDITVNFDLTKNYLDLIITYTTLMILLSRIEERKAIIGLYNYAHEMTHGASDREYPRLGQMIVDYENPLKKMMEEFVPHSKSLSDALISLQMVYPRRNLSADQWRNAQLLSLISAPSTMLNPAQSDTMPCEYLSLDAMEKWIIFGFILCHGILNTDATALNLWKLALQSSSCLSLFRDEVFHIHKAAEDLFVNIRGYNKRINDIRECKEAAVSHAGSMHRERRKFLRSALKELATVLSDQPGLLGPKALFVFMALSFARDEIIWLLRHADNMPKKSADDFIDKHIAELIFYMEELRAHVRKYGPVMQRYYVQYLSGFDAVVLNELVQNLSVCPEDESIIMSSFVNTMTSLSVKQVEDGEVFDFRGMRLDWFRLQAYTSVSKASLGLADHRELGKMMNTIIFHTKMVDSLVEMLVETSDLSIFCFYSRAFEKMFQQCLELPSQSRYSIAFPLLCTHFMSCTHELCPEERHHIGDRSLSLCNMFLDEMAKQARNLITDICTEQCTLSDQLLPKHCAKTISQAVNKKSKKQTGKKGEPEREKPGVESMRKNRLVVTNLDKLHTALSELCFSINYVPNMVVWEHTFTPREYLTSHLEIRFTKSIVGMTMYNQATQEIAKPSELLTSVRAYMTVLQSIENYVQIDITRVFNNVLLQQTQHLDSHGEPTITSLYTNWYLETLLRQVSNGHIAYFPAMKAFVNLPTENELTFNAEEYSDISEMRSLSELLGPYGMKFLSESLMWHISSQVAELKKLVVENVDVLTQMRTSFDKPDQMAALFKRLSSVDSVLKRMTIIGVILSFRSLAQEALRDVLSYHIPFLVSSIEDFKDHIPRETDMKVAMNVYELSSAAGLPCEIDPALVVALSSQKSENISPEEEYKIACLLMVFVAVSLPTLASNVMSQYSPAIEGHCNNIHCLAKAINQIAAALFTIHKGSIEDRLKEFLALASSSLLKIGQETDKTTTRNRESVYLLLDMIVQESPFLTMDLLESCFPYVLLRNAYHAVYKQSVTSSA
UniProt Q9Y217: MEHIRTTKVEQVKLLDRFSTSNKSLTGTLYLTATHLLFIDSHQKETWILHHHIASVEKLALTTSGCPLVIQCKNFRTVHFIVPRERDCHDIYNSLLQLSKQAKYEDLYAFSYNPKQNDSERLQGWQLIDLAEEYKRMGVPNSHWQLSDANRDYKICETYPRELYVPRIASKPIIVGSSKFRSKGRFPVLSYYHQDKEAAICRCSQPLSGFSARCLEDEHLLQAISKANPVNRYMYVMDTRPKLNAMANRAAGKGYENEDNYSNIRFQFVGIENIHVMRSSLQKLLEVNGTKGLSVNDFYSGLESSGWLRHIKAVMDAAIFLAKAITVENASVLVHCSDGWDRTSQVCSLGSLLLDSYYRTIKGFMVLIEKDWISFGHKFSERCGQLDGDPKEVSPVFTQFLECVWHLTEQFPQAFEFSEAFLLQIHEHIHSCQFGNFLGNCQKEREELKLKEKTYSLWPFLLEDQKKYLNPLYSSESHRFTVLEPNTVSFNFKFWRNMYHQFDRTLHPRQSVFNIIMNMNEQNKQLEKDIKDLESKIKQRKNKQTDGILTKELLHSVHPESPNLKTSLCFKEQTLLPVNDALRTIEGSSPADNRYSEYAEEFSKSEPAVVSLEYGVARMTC
UniProt Q9UQ84: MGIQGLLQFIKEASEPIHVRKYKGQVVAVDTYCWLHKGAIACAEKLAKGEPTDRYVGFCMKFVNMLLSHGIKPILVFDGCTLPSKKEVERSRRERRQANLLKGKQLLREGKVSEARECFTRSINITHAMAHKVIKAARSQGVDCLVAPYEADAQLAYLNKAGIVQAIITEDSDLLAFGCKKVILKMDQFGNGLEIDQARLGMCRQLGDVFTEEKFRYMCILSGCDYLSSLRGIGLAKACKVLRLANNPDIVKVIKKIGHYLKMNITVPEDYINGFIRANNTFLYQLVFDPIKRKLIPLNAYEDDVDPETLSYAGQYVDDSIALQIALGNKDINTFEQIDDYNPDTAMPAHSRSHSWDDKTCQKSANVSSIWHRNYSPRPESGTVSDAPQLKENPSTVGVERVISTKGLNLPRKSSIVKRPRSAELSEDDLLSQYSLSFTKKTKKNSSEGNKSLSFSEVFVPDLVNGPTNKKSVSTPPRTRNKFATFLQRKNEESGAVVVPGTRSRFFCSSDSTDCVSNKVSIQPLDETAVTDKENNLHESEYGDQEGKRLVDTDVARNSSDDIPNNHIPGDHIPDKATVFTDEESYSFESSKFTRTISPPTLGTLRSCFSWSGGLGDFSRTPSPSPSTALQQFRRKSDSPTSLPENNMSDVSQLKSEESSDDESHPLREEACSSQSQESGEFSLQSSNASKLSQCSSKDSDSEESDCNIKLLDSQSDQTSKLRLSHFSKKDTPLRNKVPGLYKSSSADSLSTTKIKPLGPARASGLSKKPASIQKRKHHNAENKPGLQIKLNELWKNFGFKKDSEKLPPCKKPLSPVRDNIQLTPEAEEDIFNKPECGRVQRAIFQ
UniProt Q9UKF6: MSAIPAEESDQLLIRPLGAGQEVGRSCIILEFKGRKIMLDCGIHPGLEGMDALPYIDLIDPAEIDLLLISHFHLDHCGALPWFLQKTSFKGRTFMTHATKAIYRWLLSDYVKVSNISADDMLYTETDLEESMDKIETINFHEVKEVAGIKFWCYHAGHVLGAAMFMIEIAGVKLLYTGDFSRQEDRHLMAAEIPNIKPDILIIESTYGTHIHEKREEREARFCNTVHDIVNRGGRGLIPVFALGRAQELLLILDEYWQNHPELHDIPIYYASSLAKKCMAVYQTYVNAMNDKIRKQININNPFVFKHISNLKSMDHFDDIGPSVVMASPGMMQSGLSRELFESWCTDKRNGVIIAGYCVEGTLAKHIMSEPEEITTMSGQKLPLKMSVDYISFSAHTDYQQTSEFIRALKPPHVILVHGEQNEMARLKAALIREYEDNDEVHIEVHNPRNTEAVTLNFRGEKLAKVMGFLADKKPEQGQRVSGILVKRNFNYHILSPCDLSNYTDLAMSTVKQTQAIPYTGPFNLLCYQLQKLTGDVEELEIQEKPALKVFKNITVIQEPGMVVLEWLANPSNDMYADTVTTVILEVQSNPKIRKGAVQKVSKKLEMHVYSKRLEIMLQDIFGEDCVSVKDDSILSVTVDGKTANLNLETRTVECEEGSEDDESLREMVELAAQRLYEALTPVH

These targets were tested with COC(=O)C#Cc1ccccc1 [methyl 3-phenylpropiolate] (assay: log2 ratio of iodoacetamide-alkyne labeling of the cysteine site, DMSO over compound (competition); higher = stronger covalent engagement of the cysteine by the compound, active = 1 or more). Conditions: 500 µM; treatment time 1 h; system: HEK293T cell lysate.
Summary of the method: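 Electrophile (500 µM) or vehicle was added to HEK293T lysate (2 mg/mL) for 1 h at ambient temperature before iodoacetamide alkyne labelling (1 h) and click coupling to sCIP-TMT reagents. After pooling, overnight trypsin digestion at 37 °C, streptavidin enrichment and acid elution, peptides were measured by Orbitrap Eclipse LC-MS/MS with FAIMS and quantified in FragPipe. Each cysteine's log2 competition ratio compares mean control-channel with mean compound-channel reporter intensity, control over compound. Data came from duplicate channels across three replicates, excluding cysteines quantified in only one replicate.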

log2 ratio of iodoacetamide-alkyne labeling, inactive:
ACIN1 C733 (UniProt Q9UKV3) 0.0856, UniProt Q9Y3U8_C48 0.297, ZMYND8 C1062 (UniProt Q9ULU4) 0.248, DIS3 C799 (UniProt Q9Y2L1) 0.13, MACF1 C7344 (UniProt Q9UPN3) -0.0093, ZNHIT2 C188 (UniProt Q9UHR6) 0.218, TPX2 C594 (UniProt Q9ULW0) 0.73, HECTD1 C2415 (UniProt Q9ULT8) 0.0611, EPB41L3 C140 (UniProt Q9Y2J2) -0.00819, UniProt Q9UHJ3_C142 0.274, UniProt Q9UK61_C734 0.0144, DIS3 C533 (UniProt Q9Y2L1) 0.324, LSM7 C76 (UniProt Q9UK45) 0.0557, MRPS18C C90 (UniProt Q9Y3D5) 0.167, SLC39A10 C153 (UniProt Q9ULF5) 0.358, NCKAP1 C622 (UniProt Q9Y2A7) 0.408, DIS3 C213 (UniProt Q9Y2L1) 0.313, DRG1 C195 (UniProt Q9Y295) 0.248, TIMELESS C1126 (UniProt Q9UNS1) 0.807, ACIN1 C691 (UniProt Q9UKV3) 0.212, UniProt Q9UK61_C429 0.233, UniProt Q9UHD8_C531 0.77, POLDIP2 C143 (UniProt Q9Y2S7) 0.786, EXOSC1 C40 (UniProt Q9Y3B2) 0.2, MTMR6 C569 (UniProt Q9Y217) 0.632, TBC1D24 C8 (UniProt Q9ULP9) 0.177, RABGAP1 C476 (UniProt Q9Y3P9) 0.117, MACF1 C5049 (UniProt Q9UPN3) 0.311, USP24 C14 (UniProt Q9UPU5) 0.224, SMC3 C650 (UniProt Q9UQE7) -0.263, EXO1 C608 (UniProt Q9UQ84) 0.283, LNPEP C35 (UniProt Q9UIQ6) 0.283, STRAP C340 (UniProt Q9Y3F4) -0.0306, ANAPC2 C421 (UniProt Q9UJX6) 0.311, CPSF3 C655 (UniProt Q9UKF6) 0.293, TRIM33 C150 (UniProt Q9UPN9) 0.21, UniProt Q9Y3I0_C122 0.138
